PubChem BioAssay AID493014 (National Center for Advancing Translational Sciences (NCATS), 2011)
The whole screen tested about 340,000 compounds, of which about 170 (0.05%) were called active. The shares of active, inactive and inconclusive entries below differ from those in the screen. Calls come from the whole dose curve; as a rule, active = well fitted inhibition curve with a large enough effect in the signal ratio, with a control signal flat (not every such curve was filed as active); inconclusive = small, poorly fitted or top-dose-only effect, or effect the other way, or a change in a side signal; inactive = flat fitted curve, though single readings scatter; the % refers to the signal ratio. Potencies of inconclusive entries are doubtful fits and often do not repeat.

Assay: qHTS Assay to Find Inhibitors of Chronic Active B-Cell Receptor Signaling;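 for activity change, negative = inhibition: plate controls were basal doxycycline-induced cells for no effect and cells given 10 µM MG132 for full effect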
Conditions: ABC-DLBCL IkBa-CBG/CBR reporter, luminescence ratio (green luciferase fused to IkBa over red control in TMD8 lymphoma cells), 4 h; activity change, negative = inhibition: at 46.1 µM (top of the series)
How it was run: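 Doxycycline induced both beetle luciferases in TMD8 lymphoma cells; IKK-driven degradation limits the IkappaBalpha-fused green signal, while red luminescence normalises for cell number and nonspecific effects. Compounds tested up to 46 uM, 4 hrs.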
Potency is the fitted concentration of half-maximal effect.

SMILES | activity change, negative = inhibition | Potency
Cc1ccc(NC(=O)c2cc(S(=O)(=O)N3CCCc4ccccc43)ccc2F)cc1F | inconclusive: 13.4% | 
CCN(Cc1ccncc1)C(=S)Nc1ccc(Cl)cc1 | inconclusive: 10.7% | 
Cc1ccc(C)c(N2C(=O)CN=C2Nc2ccccc2Cl)c1 | inconclusive: 7.78% | 
CCCCSc1nc(C)cc(NC(=S)Nc2ccc(OC)cc2)n1 | inactive | 
O=C(Cc1ccccc1[N+](=O)[O-])Nc1ccc(S(=O)(=O)N2CCCC2)cc1 | inconclusive: 0.696% | 
COc1ccc(S(=O)(=O)NCC2CCCN(C(=O)c3cccnc3)C2)cc1 (stereo unspecified) | inconclusive: -2.88% | 
COc1ccc(-c2noc(N3CCC(C(=O)Nc4ccc(F)cc4F)CC3)n2)cc1 |  | inconclusive: 35.5 µM [falling, single point]
O=C(CN1CCN(Cc2ccccc2)CC1)c1ccccc1 | inconclusive: 12% | 
CCN(CC)CC#CCC(O)(c1ccccc1)C1CCCCC1 (stereo unspecified) |  | inconclusive: 11.2 µM [falling, partial curve, poor fit]
CCC(C)NC(=O)Cn1c(=O)n(-c2ccc(Cl)c(Cl)c2)c(=O)c2c(C)c(C(=O)N(CC)CC)sc21 (stereo unspecified) | inactive | 
O=C(NCc1ccccc1)c1nc[nH]c1C(=O)NCc1ccccc1 |  | inconclusive: 11.2 µM [falling, single point]
CC(C)(C)n1nc(-c2ccc(Cl)cc2)c2c(N)ncnc21 |  | inconclusive: 2.82 µM [falling, full curve]
COc1ccc(-c2cc3c(=O)n(CC(=O)N4CCN(C)CC4)ncn3n2)cc1 | inconclusive: 8.89% | 
NC(=O)c1c(NC(=O)C2c3ccccc3Oc3ccccc32)sc2c1CCCCC2 | inactive | 
CN(C)c1ccc(N=Nc2ccccc2C(=O)OCC(=O)NC2CCCC2)cc1 | inconclusive: -0.106% | 
C#CC(C)(C)NC(=O)c1ccc(-c2ccccc2F)cc1 | inactive | 
CC1CN(S(=O)(=O)c2cc(C(=O)NCc3ccncc3)ccc2Cl)CC(C)O1 (stereo unspecified) | inactive | 
CCN(c1ccccc1)S(=O)(=O)c1ccc(OC)c(NC(=O)CNCCc2ccccc2)c1 | inconclusive: -5.65% | 
CCC(C(=O)OCc1csc(CC(=O)Nc2ccccc2C)n1)c1ccccc1 (stereo unspecified) | inconclusive: -13.4% | 
Cc1nc(C)c(-c2csc(Nc3cccnc3)n2)s1 |  | inconclusive: 20.6 µM [falling, single point]
NC(=S)NN=Cc1ccc(-c2ccc(S(=O)(=O)Nc3ncccn3)cc2)o1 | inactive | 
O=Cc1cc(N=Nc2cccc(C(=O)O)c2)ccc1O |  | inconclusive: 3.16 µM [falling, full curve]
O=C(c1ccco1)N1CCN(C(=O)C2CCCN(S(=O)(=O)Cc3ccccc3)C2)CC1 (stereo unspecified) | inconclusive: -0.553% | 
C=CCn1c(SCc2csc(C)n2)nc2sc3c(c2c1=O)CCC(C)C3 (stereo unspecified) |  | inconclusive: 4.11 µM [falling, partial curve, poor fit]
CCC(C)c1ccc(NC(=O)CN(C)CC(=O)Nc2cccc(OC)c2)cc1 (stereo unspecified) |  | inconclusive: 35.5 µM [falling, single point]
CCCCCSc1nc(N2CCOCC2)c2c(c1C#N)CC(C)(C)OC2 | inconclusive: 2.93% | 

SMILES | activity change, negative = inhibition | Potency
CC(=O)c1ccc(NC(=O)c2ccc(NC(=O)CCS(=O)(=O)c3cccs3)cc2)cc1 | inconclusive: 1.94% | 
Cc1ccccc1-n1c(SCC(=O)Nc2ccc3c(c2)OCO3)nnc1-c1ccccn1 | inconclusive: 26.7% | 
NNC(=O)c1ccc2[nH]c3c(c2c1)CCCC3 | inconclusive: -2.92% | 
CN(Cc1ccc(F)cc1)C(=O)c1cccc(OCc2ccccc2)c1 | inactive | 
O=C(CSCc1nc2ccccc2[nH]1)N1CCN(c2ccc(F)cc2)CC1 |  | inconclusive: 8.91 µM [falling, partial curve, poor fit]
COc1cccc(/C=N/NC(=O)c2ccc(=O)n(C)c2)c1O | inactive | 
Cc1cc2cc(CCNS(C)(=O)=O)c(=O)[nH]c2cc1C | inconclusive: 6.13% | 
CNc1oc(-c2ccccc2F)nc1S(=O)(=O)c1ccc(C)cc1 | inconclusive: 6.09% | 
O=C(Cc1ccccc1)NC(NC(=S)Nc1cc(Cl)ccc1Cl)C(Cl)(Cl)Cl (stereo unspecified) | inconclusive: 4.59% | 
O=C1/C(=C/c2cccnc2)CCC/C1=C\c1cccnc1 |  | inconclusive: 3.26 µM [cytotoxic, partial curve]
CCn1c2ccccc2c2cc(NC(=O)C(C)Oc3ccccc3)ccc21 (stereo unspecified) |  | inconclusive: 12.6 µM [rising, partial curve, poor fit]
CN(C)S(=O)(=O)N1CCC(Oc2cccc(C(=O)NC3CCCCC3)c2)CC1 | inconclusive: -13.4% | 
Cc1nc(N2CCN(S(=O)(=O)c3ccccc3)CC2)c2cc(-c3ccccc3)sc2n1 | inconclusive: 8.55% | 
COc1ccc(Cl)cc1C(=O)OCC(=O)NC1CCCC(C)C1C (stereo unspecified) | inactive | 
CCCCCCCCCCC[C@@H](C[C@@H]1OC(=O)[C@H]1CCCCCC)OC(=O)[C@H](CC(C)C)NC=O | inactive | 
COC(=O)c1ccc2c(=O)[nH]c(COC(=O)c3c(-c4ccccc4Cl)noc3C)nc2c1 | inconclusive: -4.11% | 
O=C(Nc1ccc(F)cc1)c1cc2c(s1)CCCC2 | inconclusive: 303% | 
CCC/C=N/NC(=O)c1ccccc1O | inconclusive: 210% | 
COc1ccccc1CNC(=O)C1CC(c2ccc([N+](=O)[O-])cc2)=NO1 (stereo unspecified) |  | inconclusive: 11.2 µM [falling, partial curve, poor fit]
CCOC(=O)N1CCN(c2nc3ccccc3nc2C(C#N)S(=O)(=O)c2ccc(C)cc2)CC1 (stereo unspecified) | inconclusive: 11.7% | 
Cc1cc(Nc2ccc(C(=O)O)cc2)nc(N)n1 | inconclusive: -18.1% | 
CC1=NN(C(=S)Nc2ccccc2)C(c2ccccc2)C1 (stereo unspecified) | inconclusive: 10.9% | 
CN1C(=O)C(C)(C)c2cc(S(=O)(=O)N3CCN(c4ccccc4F)CC3)ccc21 | inactive | 
CCOC(=O)Cc1csc(N/N=C/c2ccc(C(F)(F)F)cc2)n1 |  | inconclusive: 2 µM [falling, full curve, poor fit]
COc1ccc2[nH]c3ccc(OC)cc3c2c1 | inconclusive: -5.17% | 

Three structures from above, arranged by molar mass, rising.
SMILES | activity change, negative = inhibition | Potency
COc1ccc2[nH]c3ccc(OC)cc3c2c1 | inconclusive: -5.17% | 
NNC(=O)c1ccc2[nH]c3c(c2c1)CCCC3 | inconclusive: -2.92% | 
CN1C(=O)C(C)(C)c2cc(S(=O)(=O)N3CCN(c4ccccc4F)CC3)ccc21 | inactive | 
